Measurements: PMC7145421
Results are given in words; binding and its absence hold for the method and conditions named. Binding seen in cells or lysates may run through a third protein. Some binding calls cover weakened binding; strength is not graded here. For part of these data: Sequences can lack the tags named with a protein.

By UniProt entry, the sequences of proteins in these tests, tags left out.
UniProt P19525: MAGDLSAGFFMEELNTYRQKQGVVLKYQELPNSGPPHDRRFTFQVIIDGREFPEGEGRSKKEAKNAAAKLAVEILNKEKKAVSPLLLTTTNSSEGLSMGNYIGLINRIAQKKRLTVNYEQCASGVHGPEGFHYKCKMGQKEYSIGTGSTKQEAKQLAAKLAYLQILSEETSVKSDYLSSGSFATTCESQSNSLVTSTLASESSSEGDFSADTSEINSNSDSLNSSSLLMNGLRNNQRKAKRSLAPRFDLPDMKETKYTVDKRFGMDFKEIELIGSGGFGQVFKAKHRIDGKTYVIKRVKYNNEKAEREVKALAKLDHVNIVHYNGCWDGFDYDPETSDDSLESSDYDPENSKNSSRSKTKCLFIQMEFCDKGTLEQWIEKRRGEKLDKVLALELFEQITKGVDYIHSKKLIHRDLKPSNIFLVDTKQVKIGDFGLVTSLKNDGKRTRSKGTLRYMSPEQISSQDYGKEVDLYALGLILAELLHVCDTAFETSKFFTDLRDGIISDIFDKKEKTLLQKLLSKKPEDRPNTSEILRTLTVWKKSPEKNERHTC

T1: FLAG-WT PACT (UniProt O75569)
T1 sequence: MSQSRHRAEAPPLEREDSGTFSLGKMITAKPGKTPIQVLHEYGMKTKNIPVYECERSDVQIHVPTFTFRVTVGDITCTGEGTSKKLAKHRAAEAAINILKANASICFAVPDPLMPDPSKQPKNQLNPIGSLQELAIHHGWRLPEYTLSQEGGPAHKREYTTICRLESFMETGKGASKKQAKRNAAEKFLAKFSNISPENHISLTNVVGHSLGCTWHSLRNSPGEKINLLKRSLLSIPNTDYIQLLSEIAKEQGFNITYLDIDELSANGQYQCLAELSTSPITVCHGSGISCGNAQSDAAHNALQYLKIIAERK


Key:
[1] = biological target: FLAG-tagged human PKR (human) (UniProt P19525); assay: condition: only unstressed or low-intensity stress (500 mOsm sucrose or 5% w/v DSS); co-IP; FLAG antibody on lysates of PKR KO MEFs reconstituted with FLAG-tagged human PKR; cells unstressed or in low-intensity stress (500 mOsm sucrose or 5% w/v DSS, 3 hr); RIPA buffer, Protein A/G Dynabeads, 4° C; western blot
[2] = biological target: FLAG-tagged human PKR (human) (UniProt P19525); assay: co-IP; FLAG antibody on lysates of PKR KO MEFs reconstituted with FLAG-tagged human PKR; cells treated 3 hr with high-intensity stress (600 mOsm sucrose or 10% w/v DSS); RIPA buffer, Protein A/G Dynabeads, 4° C; western blot
FLAG-WT PACT = biological target: T1, FLAG-WT PACT; assay: co-IP; FLAG antibody on extracts of PACT KO MEFs reconstituted with FLAG-WT or mutant PACT; cells treated with 600 mOsm sucrose for 3 hr; RIPA buffer; western blot

Row | binding [1] | binding [2] | binding (FLAG-WT PACT) | Binder
1 | no binding | binds | – | PKR-activating protein (PACT), endogenous in MEFs (protein, UniProt Q9WTX2 1-313) MSHSRHRAEAPPLQREDSGTFSLGKMITAKPGKTPIQVLHEYGMKTKNIPVYECERSDVQVHVPTFTFRVTVGDITCTGEGTSKKLAKHRAAEAAINILKANASICFAVPDPLMPDPSKQPKNQLNPIGSLQELAIHHGWRLPEYTLSQEGGPAHKREYTTICRLESFMETGKGASKKQAKRNAAEKFLAKFSNISPENHISLTNVVGHSLGCTWHSLRNSPGEKINLLKRSLLSLPNTDYIQLLSEIASEQGFNITYLDIEELSANGQYQCLAELSTSPITVCHGSGISCGNAQSDAAHNALQYLKIIAERK
2 | – | – | binds | PKR, endogenous in PACT KO MEFs (enzyme, UniProt Q03963 1-515) MASDTPGFYMDKLNKYRQMHGVAITYKELSTSGPPHDRRFTFQVLIDEKEFPEAKGRSKQEARNAAAKLAVDILDNENKVDCHTSASEQGLFVGNYIGLVNSFAQKKKLSVNYEQCEPNSELPQRFICKCKIGQTMYGTGSGVTKQEAKQLAAKEAYQKLLKSPPKTAGTSSSVVTSTFSGFSSSSSMTSNGVSQSAPGSFSSENVFTNGLGENKRKSGVKVSPDDVQRNKYTLDARFNSDFEDIEEIGLGGFGQVFKAKHRIDGKRYAIKRVKYNTEKAEHEVQALAELNHVNIVQYHSCWEGVDYDPEHSMSDTSRYKTRCLFIQMEFCDKGTLEQWMRNRNQSKVDKALILDLYEQIVTGVEYIHSKGLIHRDLKPGNIFLVDERHIKIGDFGLATALENDGKSRTRRTGTLQYMSPEQLFLKHYGKEVDIFALGLILAELLHTCFTESEKIKFFESLRKGDFSNDIFDNKEKSLLKKLLSEKPKDRPETSEILKTLAEWRNISEKKKRNTC
